These results are taken from PubChem BioAssay AID2685 (National Center for Advancing Translational Sciences (NCATS), 2010).

The AC50 is the midpoint of the concentration-response curve, whichever way the signal moves. A low value points to activity at low concentration.

The structures appear in SMILES notation. Some of the results follow. These are further read-outs of the screen, such as a control signal, another cell line or another target. No call is given for them. Most of these compounds were active or inconclusive in the main read-out, so they are no random draw. Potencies come from curve fits of mixed quality, noted in brackets.

The nature of the test: qHTS Assay for Lipid Storage Modulators in Drosophila S3 Cells.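 On cell number change: cells counted by Cell Tracker Red CMTPX staining in the red channel.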 Particulars: BODIPY lipid droplet fluorescence, 18-24 h; for cell number change: measured here: cell count max response, cells fed with added oleic acid. The gist of the method: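 Drosophila S3 cells loaded with oleic acid (400 uM, as added) and compounds at several concentrations; lipid droplets imaged by 488-nm laser-scanning cytometry, 500–530 nm intensity and object ratio to cell channel. Percent activity normalized to 20 uM Triacsin C.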
(In general: In qHTS, concentration-response curves come from the screen itself.)

[1] abbreviates: measured here: cell number channel AC50, cells fed with added oleic acid.
The mark [2] stands for this setting: measured here: lipid fluorescence (Fed channel) AC50, cells fed with added oleic acid.

`Nc1cc(=O)[nH]c(SCC(=O)Nc2ccccc2Sc2ccc(Cl)cc2)n1`: the cell number change was -41.1%. The AC50 under setting [1] is 7.31 µM [falling, partial curve]. In addition, the AC50 under setting [2] is 0.13 µM [falling, full curve, poor fit].
As for `CCOC(=O)c1ccc(NC(=O)C2CC(=O)N=C(N)S2)cc1` (configuration not stated), the cell number change is 23.4%.
Regarding `CC(NC(=O)CCC(=O)c1ccccc1)c1ccc(F)cc1` (configuration not stated), the AC50 under setting [2] was 1.84 µM [rising, partial curve].
As to `O=C(Cn1c(=O)n(-c2cccc(C(F)(F)F)c2)c(=O)c2sccc21)NCC1CCCO1` (configuration not stated), the cell number change was determined as 21.8%.
Still for that read-out and setting: the result for `Cc1ccc(NC(=O)CSC(C)C(=O)OC(C)C(=O)NC2CCCCC2C)cc1` (configuration not stated) reads -0.323%.
With `O=C(NC1CCCCCC1)c1cc(S(=O)(=O)N2CCCCC2)ccc1N1CCOCC1`, the cell number change came to 61.8%. Besides, the AC50 under setting [1] is 0.00461 µM [rising, full curve, poor fit]. Further, the AC50 under setting [2] is 0.0184 µM [rising, full curve, poor fit].
Take `Cc1cc(C)n(Cc2cccc(C(=O)N/N=C/c3cccnc3)c2)n1`: the cell number change is -6.91%. For the same compound, the AC50 under setting [2] was 0.13 µM [rising, full curve, poor fit].
As for `O=C(O)c1cc(-c2cccs2)nc2ccc(Br)cc12`, the cell number change was -9.72%. Further, the AC50 under setting [2] is 3.66 µM [rising, partial curve].
For the compound `CCC(=O)Nc1ccc(C(=O)Nc2ccc3c(c2)C(=O)N(CC2CCCO2)C3=O)cc1` (configuration not stated), the cell number change was -13.7%. Moreover, the half-maximal activity concentration (AC50) under setting [2] was 6.51 µM [falling, single point].
Turning to `CC(C)CC(=O)Nc1ccnc(-c2ccncc2)n1`, the cell number change was 8.46%.
In the case of `CCC(=O)Nc1ccc(Cl)c(NC(=O)c2c(OC)cccc2OC)c1`, the AC50 by setting is: under setting [1], 3.66 µM [falling, partial curve]; under setting [2], 2.06 µM [falling, partial curve].
With `CC(C)(C)c1nc2scc(-c3cccs3)c2c(=O)o1`, the cell number change is -45.7%. Besides, under setting [1], the AC50 was 23.1 µM [falling, partial curve]. Under setting [2], the AC50 was 29.1 µM [falling, single point].
Turning to `COC(=O)c1ccc(C(NC(=O)OCc2ccccc2)/C(F)=C/[C@@H](C)C(=O)NCc2ccc(-c3ccccc3)cc2)cc1` (some centres not stated), the cell number change is 27.7%. Further, under setting [2], the AC50 was 0.0731 µM [falling, partial curve, poor fit].
In the case of `COc1cccc(N(CC(=O)Nc2cccc(C(C)=O)c2)S(C)(=O)=O)c1`, the AC50 under setting [2] was 29.1 µM [rising, single point].
With `CCOC(=O)N1CCN(S(=O)(=O)N2CCCC(C(=O)NCc3cccc(OC)c3)C2)CC1` (configuration not stated), the cell number change is -2.12%. In addition, under setting [2], the concentration at half-maximal activity (AC50) was 4.11 µM [falling, single point].
Consider `Cc1ccc(C(C(=O)NC(C)(C)C)N(CC2CCCO2)C(=O)Cn2nnc(-c3ccc(C)o3)n2)cc1` (configuration not stated), for which the cell number change is -41%. The AC50 under setting [1] is 8.2 µM [falling, partial curve]. Moreover, the AC50 under setting [2] was 25.9 µM [falling, partial curve].
For the compound `C/[N+]([O-])=C1\Cc2ccccc2C1=O`, the cell number change stood at 2.17%. Also, under setting [2], the AC50 is 4.11 µM [falling, single point].
`CN(C)c1ccc(C(=O)OCC(=O)N2CCCC2)cc1`: the cell number change was -6.31%.
Turning to `N/C(=N/OC(=O)c1ccccc1F)c1nonc1N`, the cell number change was found to be 4.11%. Also, under setting [1], the AC50 was 4.11 µM [falling, single point].
Turning to `O=C(Cn1cc(C(F)(F)F)ccc1=O)NC1CCCC1`, the cell number change is 9.45%. Further, the half-maximal activity concentration (AC50) under setting [1] is 1.46 µM [falling, partial curve]. Further, the AC50 under setting [2] was 1.16 µM [falling, partial curve].
As for `COc1ccc(OC)c(CCNC(=O)CCc2nnc3ccc(N4CCOCC4)nn23)c1`, the cell number change is -11.6%.
Turning to `CCCn1c(=O)c(C(=O)Nc2ncccc2O)c(O)c2ccccc21`, the cell number change was -7.72%. The AC50 under setting [2] was 1.3 µM [rising, full curve].
Regarding `COc1ccccc1N1N=C(c2cccs2)CC1c1ccccc1` (configuration not stated), the cell number change was -36.1%. For the same compound, under setting [1], the AC50 was 0.092 µM [falling, full curve, poor fit]. Moreover, under setting [2], the AC50 was 1.03 µM [falling, full curve, poor fit].
With `c1ccc(Oc2cccc(CN3CCOCC3)c2)cc1`, the cell number change worked out at 3.51%. Also, under setting [2], the AC50 was 13 µM [rising, partial curve, poor fit].
Turning to `Cc1nn(C)c(C)c1CN(C)C(=O)c1cc2nc(-c3ccco3)cc(C(F)(F)F)n2n1`, the cell number change is 68.3%. The AC50 under setting [1] is 29.1 µM [rising, single point]. The AC50 under setting [2] was 3.66 µM [rising, partial curve].
`O=C(c1ccc(Br)s1)N1CCN(C/C=C/c2ccccc2)CC1`: the cell number change is 9.88%.
Regarding `Cc1ccc(CNc2ccc(CNc3ncn[nH]3)cc2)cc1`, under setting [1], the AC50 was 2.31 µM [rising, partial curve, poor fit].
On to `Cc1ccc(/C=C2/Sc3ccccc3N(CC(=O)NCCCOC(C)C)C2=O)cc1`, for which the cell number change is -7.91%. Moreover, the AC50 under setting [1] is 7.31 µM [falling, single point].
In the case of `O=C(CSc1nncn1-c1ccccc1)NC1CCCCC1`, the cell number change amounted to 15.8%. The AC50 under setting [2] is 6.51 µM [falling, single point].
With `CC(=O)c1ccc(Nc2nc(-c3cccnc3)cs2)cc1`, the cell number change is 12.4%. The AC50 under setting [2] is 29.1 µM [rising, single point].
As for `COc1ccccc1N(Cc1ccccc1)S(=O)(=O)c1cccc(C(=O)NCC2CCCO2)c1` (configuration not stated), the cell number change was -28.4%. Under setting [2], the AC50 was 0.259 µM [falling, partial curve, poor fit].
For `COc1ccc(CCNC(=S)NC(=O)c2cccc([N+](=O)[O-])c2)cc1OC`, the cell number change is -3.79%. Besides, the AC50 under setting [2] is 25.9 µM [falling, single point].
As for `CC1CCN(c2nc3c(c(=O)[nH]c(=O)n3C)n2CCSc2nc3ccccc3o2)CC1`, the cell number change is -33.3%. In addition, the AC50 under setting [1] is 3.66 µM [falling, full curve]. Besides, under setting [2], the AC50 is 3.66 µM [falling, full curve].
For the compound `CCN(CC)S(=O)(=O)c1ccc(N2CCOCC2)c(C(=O)O)c1`, the cell number change was -7.14%. Under setting [2], the AC50 was 0.651 µM [falling, full curve].
Turning to `CCOC(=O)c1c(NC(=O)c2ccoc2C)sc(C(=O)N(C)C)c1C`, the cell number change is 52.4%. The AC50 under setting [1] was 18.4 µM [rising, partial curve].
As to `Cc1cc(=O)oc2cc(OCC(=O)Nc3c(C)n(C)n(-c4ccccc4)c3=O)c(Cl)cc12`, the cell number change amounted to 38%. For the same compound, the half-maximal activity concentration (AC50) under setting [1] is 2.31 µM [rising, full curve].
`O=C(CSc1nc2nn(-c3ccccc3)c(=O)c-2c2n1CCCCC2)c1ccc(O)c(O)c1`: the cell number change is -16.7%. Also, under setting [2], the AC50 is 0.326 µM [falling, full curve, poor fit].
